{"source": "paper PMC9966435", "about": "“Synthesis and Biological Evaluation of 3-Amidoquinuclidine Quaternary Ammonium Compounds as New Soft Antibacterial Agents” (Pharmaceuticals, 2023)", "format_in_all_cases": "cell-based", "key": {"[1]": {"tested_on": "Salmonella enterica food isolate", "test": "microbe, parasite or virus in culture", "details": "read-out: Minimum Inhibitory Concentration (MIC) Salmonella enterica food isolate"}, "[2]": {"tested_on": "Pseudomonas aeruginosa ATTC27853", "test": "Broth microdilution MIC in Mueller Hinton broth", "details": "ATTC27853, read-out: Minimum Inhibitory Concentration (MIC) Pseudomonas aeruginosa ATTC27853"}, "[3]": {"tested_on": "Staphylococcus aureus Clinical/MRSA", "test": "Broth microdilution MIC in Mueller Hinton broth", "details": "read-out: Minimum Inhibitory Concentration (MIC) Staphylococcus aureus Clinical/MRSA"}, "[4]": {"tested_on": "Bacillus cereus ATCC14579", "test": "Broth microdilution MIC in Mueller Hinton broth", "details": "ATCC14579, read-out: Minimum Inhibitory Concentration (MIC) Bacillus cereus ATCC14579"}, "[5]": {"tested_on": "Escherichia coli ATTC25922", "test": "Broth microdilution MIC in Mueller Hinton broth", "details": "ATTC25922, read-out: Minimum Inhibitory Concentration (MIC) Escherichia coli ATTC25922"}, "[6]": {"tested_on": "Staphylococcus aureus ATCC33591", "test": "Broth microdilution MIC in Mueller Hinton broth", "details": "ATCC33591, read-out: Minimum Inhibitory Concentration (MIC) Staphylococcus aureus ATCC33591"}, "[7]": {"tested_on": "Enterococcus faecalis ATCC29212", "test": "Broth microdilution MIC in Mueller Hinton broth", "details": "ATCC29212, read-out: Minimum Inhibitory Concentration (MIC) Enterococcus faecalis ATCC29212"}, "[8]": {"tested_on": "Staphylococcus aureus ATCC25923", "test": "Broth microdilution MIC in Mueller Hinton broth", "details": "ATCC25923, read-out: Minimum Inhibitory Concentration (MIC) Staphylococcus aureus ATCC25923"}, "[9]": {"tested_on": "Listeria monocytogenes ATCC7644", "test": "Broth microdilution MIC in Mueller Hinton broth", "details": "ATCC7644, read-out: Minimum Inhibitory Concentration (MIC) Listeria monocytogenes ATCC7644"}}, "data": [{"smiles": "CCCCCCCCCCCCCCCC[n+]1ccccc1", "note": "[CPC, cetylpyridinium chloride, reference compound]", "values": [{"measurement": "MIC", "setting": "[1]", "result": 63, "unit": "µM"}, {"measurement": "MIC", "setting": "[2]", "result": 250, "unit": "µM"}, {"measurement": "MIC", "setting": "[3]", "result": 8, "unit": "µM"}, {"measurement": "MIC", "setting": "[4]", "result": 16, "unit": "µM"}, {"measurement": "MIC", "setting": "[5]", "result": 16, "unit": "µM"}, {"measurement": "MIC", "setting": "[6]", "result": 6, "unit": "µM"}, {"measurement": "MIC", "setting": "[7]", "result": 8, "unit": "µM"}, {"measurement": "MIC", "setting": "[8]", "result": 4, "unit": "µM"}, {"measurement": "MIC", "setting": "[9]", "result": 8, "unit": "µM"}]}]}
